Results deposited as PubChem BioAssay AID1224829 (NIAID, 2016)
This is an unselected part of about 3,800 reagents. 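Calls cover raised and lowered translocation; gene median uses one vendor's three siRNAs; qiagen siRNAs acted more weakly than ambion siRNAs.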 A number with no mark means an inactive call. Reagents against one gene are numbered here. Further read-outs or replicates are left out here.

- Assay: 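Genes needed for LPS-driven NF-kappaB p65 nuclear entry in mouse macrophages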 (follow-up of hits)
- Cell system: mouse RAW264.7 G9 macrophage reporter cells
- Reagent: single siRNA against mouse genes, 100 nM
- Time to read-out: 2 days of siRNA knock-down, then 40 min of LPS before fixing
- Conditions: LPS (Salmonella minnesota R595) at 10 ng/ml
- Read-out: 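High-content images after 40 min LPS exposure; GFP-p65 nucleus to surrounding ring signal ratio, normalised to plate median and non-targeting control wells, expressed as z-score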
- Direction: p65 translocation z-score: higher = more nuclear NF-kappaB p65 after LPS
- Active means: 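An siRNA is called active when the mean z-score of its two replicates is above 2 or below -2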
- Meaning of the calls: active = changed p65 translocation (either direction); inactive = no clear change

Vamp1 #1, siRNA vendor or control pool ambion single siRNA showed p65 translocation z-score, replicate mean 0.384; p65 translocation z-score, replicate 1 = 1.33.
For Vamp1 #2, siRNA vendor or control pool ambion single siRNA, the values are p65 translocation z-score, replicate mean -2.8 (active); p65 translocation z-score, replicate 1 = -3.1.
For Vamp1 #3, siRNA vendor or control pool ambion single siRNA, the values are p65 translocation z-score, replicate mean -1.49; p65 translocation z-score, replicate 1 = -1.
For Vamp1 #4, siRNA vendor or control pool qiagen single siRNA, the values are p65 translocation z-score, replicate mean 1.18; p65 translocation z-score, replicate 1 = -0.794.
Vamp1 #5, siRNA vendor or control pool qiagen single siRNA showed p65 translocation z-score, replicate mean 0.702; p65 translocation z-score, replicate 1 = -0.726.
Vamp1 #6, siRNA vendor or control pool qiagen single siRNA scored p65 translocation z-score, replicate mean -0.992; p65 translocation z-score, replicate 1 = -0.254.
Rbl2 #1, siRNA vendor or control pool ambion single siRNA showed p65 translocation z-score, replicate mean 1.76; p65 translocation z-score, replicate 1 = 2.31.
With Rbl2 #2, siRNA vendor or control pool ambion single siRNA, the values are p65 translocation z-score, replicate mean -0.991; p65 translocation z-score, replicate 1 = -1.2.
With Rbl2 #3, siRNA vendor or control pool ambion single siRNA, the entry reads p65 translocation z-score, replicate mean -1.78; p65 translocation z-score, replicate 1 = -1.06.
With Rbl2 #4, siRNA vendor or control pool qiagen single siRNA the deposit lists p65 translocation z-score, replicate mean 1.81; p65 translocation z-score, replicate 1 = 1.86.
Rbl2 #5, siRNA vendor or control pool qiagen single siRNA gave p65 translocation z-score, replicate mean -2.68 (active); p65 translocation z-score, replicate 1 = -4.97.
For Rbl2 #6, siRNA vendor or control pool qiagen single siRNA, the values are p65 translocation z-score, replicate mean -1.72; p65 translocation z-score, replicate 1 = -1.72.
Ctsw #1, siRNA vendor or control pool ambion single siRNA gave p65 translocation z-score, replicate mean 1.44; p65 translocation z-score, replicate 1 = 2.18.
For Ctsw #2, siRNA vendor or control pool ambion single siRNA, the entry reads p65 translocation z-score, replicate mean -2.1 (active); p65 translocation z-score, replicate 1 = -1.54.
For Ctsw #3, siRNA vendor or control pool ambion single siRNA the deposit lists p65 translocation z-score, replicate mean -1.39; p65 translocation z-score, replicate 1 = -0.914.

Reformatted: results already given
Gene	reagent no.	siRNA vendor or control pool	p65 translocation z-score, replicate mean	p65 translocation z-score, replicate 1
Ctsw	1	ambion single siRNA	1.44	2.18
Ctsw	2	ambion single siRNA	-2.1 (active)	-1.54

The listing continues:
For Cpq #1, siRNA vendor or control pool ambion single siRNA, the values are p65 translocation z-score, replicate mean -0.192; p65 translocation z-score, replicate 1 = -0.959.
Cpq #2, siRNA vendor or control pool ambion single siRNA scored p65 translocation z-score, replicate mean 1.99; p65 translocation z-score, replicate 1 = 2.6.
With Cpq #3, siRNA vendor or control pool ambion single siRNA, the entry reads p65 translocation z-score, replicate mean -0.605; p65 translocation z-score, replicate 1 = -0.561.
For Cpq #4, siRNA vendor or control pool qiagen single siRNA, the values are p65 translocation z-score, replicate mean 2.03 (active); p65 translocation z-score, replicate 1 = 1.47.
For Cpq #5, siRNA vendor or control pool qiagen single siRNA, the values are p65 translocation z-score, replicate mean 2.54 (active); p65 translocation z-score, replicate 1 = 2.69.
With Cpq #6, siRNA vendor or control pool qiagen single siRNA the deposit lists p65 translocation z-score, replicate mean -0.661; p65 translocation z-score, replicate 1 = -0.317.
Med14 #1, siRNA vendor or control pool ambion single siRNA gave p65 translocation z-score, replicate mean -0.983; p65 translocation z-score, replicate 1 = -1.57.
Med14 #2, siRNA vendor or control pool ambion single siRNA gave p65 translocation z-score, replicate mean -2.72 (active); p65 translocation z-score, replicate 1 = -2.
Med14 #3, siRNA vendor or control pool ambion single siRNA showed p65 translocation z-score, replicate mean -2; p65 translocation z-score, replicate 1 = -3.08.
With Med14 #4, siRNA vendor or control pool qiagen single siRNA, the entry reads p65 translocation z-score, replicate mean -7.78 (active); p65 translocation z-score, replicate 1 = -7.78.
Med14 #5, siRNA vendor or control pool qiagen single siRNA showed p65 translocation z-score, replicate mean -3.59 (active); p65 translocation z-score, replicate 1 = -3.03.
With Med14 #6, siRNA vendor or control pool qiagen single siRNA, the values are p65 translocation z-score, replicate mean -8.54 (active); p65 translocation z-score, replicate 1 = -8.54.
Hsd17b6 #1, siRNA vendor or control pool ambion single siRNA gave p65 translocation z-score, replicate mean 0.942; p65 translocation z-score, replicate 1 = 1.67.
With Hsd17b6 #2, siRNA vendor or control pool ambion single siRNA, the entry reads p65 translocation z-score, replicate mean -1.35; p65 translocation z-score, replicate 1 = -1.63.
Hsd17b6 #3, siRNA vendor or control pool ambion single siRNA showed p65 translocation z-score, replicate mean -2.81 (active); p65 translocation z-score, replicate 1 = -4.21.
With Hsd17b6 #4, siRNA vendor or control pool qiagen single siRNA the deposit lists p65 translocation z-score, replicate mean 0.921; p65 translocation z-score, replicate 1 = 0.891.
Hsd17b6 #5, siRNA vendor or control pool qiagen single siRNA gave p65 translocation z-score, replicate mean -0.657; p65 translocation z-score, replicate 1 = -1.37.
For Hsd17b6 #6, siRNA vendor or control pool qiagen single siRNA the deposit lists p65 translocation z-score, replicate mean -1.24; p65 translocation z-score, replicate 1 = -1.51.
